Results on 1 substance are retold here after publication PMC7747594, “Protease-activated receptor-2 ligands reveal orthosteric and allosteric mechanisms of receptor inhibition” (Communications Biology, 2020).

Amino acid sequences for entries named in this document (tags omitted). Residues count along the entry.
UniProt P55085, residues 37-397: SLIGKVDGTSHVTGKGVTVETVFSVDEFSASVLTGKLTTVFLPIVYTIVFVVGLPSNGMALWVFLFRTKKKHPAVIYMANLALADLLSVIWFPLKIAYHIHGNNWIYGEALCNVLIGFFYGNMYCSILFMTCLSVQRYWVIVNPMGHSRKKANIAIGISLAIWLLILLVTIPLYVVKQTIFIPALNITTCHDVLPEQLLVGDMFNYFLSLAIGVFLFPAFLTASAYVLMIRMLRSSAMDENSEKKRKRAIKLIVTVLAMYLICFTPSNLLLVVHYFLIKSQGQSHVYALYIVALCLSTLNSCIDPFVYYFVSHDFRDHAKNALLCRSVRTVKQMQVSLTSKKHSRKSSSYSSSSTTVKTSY
UniProt P32121: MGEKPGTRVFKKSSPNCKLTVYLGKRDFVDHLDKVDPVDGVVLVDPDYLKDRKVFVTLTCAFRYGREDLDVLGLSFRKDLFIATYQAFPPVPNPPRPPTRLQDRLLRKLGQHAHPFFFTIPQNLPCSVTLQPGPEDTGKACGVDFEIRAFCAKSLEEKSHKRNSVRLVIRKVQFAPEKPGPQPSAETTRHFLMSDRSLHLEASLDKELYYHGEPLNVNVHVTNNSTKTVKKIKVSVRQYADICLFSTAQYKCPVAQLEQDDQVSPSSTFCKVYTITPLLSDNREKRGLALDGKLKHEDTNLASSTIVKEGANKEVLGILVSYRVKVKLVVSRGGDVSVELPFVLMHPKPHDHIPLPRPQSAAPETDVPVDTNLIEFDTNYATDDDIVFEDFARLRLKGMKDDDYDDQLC

In the assay the target is human PAR2 in U2OS-hPAR2 cells (DiscoverX/Eurofins) (human) (UniProt P55085). As to the kind of experiment: split reporter; DiscoverX β-arrestin-2 recruitment assay based on enzyme complementation in U2OS-hPAR2 cells; agonist (AZ2429, GB110, SLIGKV-NH2 or SLIGRL-NH2) 90 min at 37 °C; chemiluminescence.

No constants are given. Whether binding was seen depends on the method and setting. Binding seen in cells or lysates may run through a third protein. Some binding calls cover weakened binding; strength is not graded here.

As to “β-arrestin-2 (from UniProt P32121 1-409)”, the binding result is listed as “binds”.
